Source: ChEMBL document CHEMBL3988442, “University of Dundee, Small-Polar-MMV Screening Library” (2021).

The chains behind the UniProt entries cited, without tags or fusion partners.
UniProt E9BF75, entry or part of it: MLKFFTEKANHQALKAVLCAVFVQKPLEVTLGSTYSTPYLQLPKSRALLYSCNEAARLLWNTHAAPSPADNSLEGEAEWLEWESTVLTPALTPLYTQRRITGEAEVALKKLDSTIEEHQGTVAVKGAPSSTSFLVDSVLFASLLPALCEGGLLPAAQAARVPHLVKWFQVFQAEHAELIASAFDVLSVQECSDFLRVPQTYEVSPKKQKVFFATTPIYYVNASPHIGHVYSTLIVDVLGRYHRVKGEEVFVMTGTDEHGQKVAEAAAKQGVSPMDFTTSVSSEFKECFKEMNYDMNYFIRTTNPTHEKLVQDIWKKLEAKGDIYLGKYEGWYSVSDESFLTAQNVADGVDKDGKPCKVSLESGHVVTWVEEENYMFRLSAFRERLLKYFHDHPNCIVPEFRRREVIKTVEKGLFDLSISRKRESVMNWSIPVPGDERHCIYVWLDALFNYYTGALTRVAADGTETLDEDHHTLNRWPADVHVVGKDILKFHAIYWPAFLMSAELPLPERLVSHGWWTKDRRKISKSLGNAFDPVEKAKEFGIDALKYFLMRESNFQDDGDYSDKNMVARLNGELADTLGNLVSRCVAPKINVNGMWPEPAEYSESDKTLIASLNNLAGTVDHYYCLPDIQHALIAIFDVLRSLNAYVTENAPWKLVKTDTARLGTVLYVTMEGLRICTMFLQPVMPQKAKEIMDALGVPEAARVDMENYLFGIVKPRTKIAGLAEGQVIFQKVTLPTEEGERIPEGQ

A: 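Methionyl-tRNA synthetase (putative), Leishmania donovani (UniProt E9BF75). Primary screen of methionyl-tRNA synthetase; the read-out is not stated. The test concentration is not given. The values are filed as inhibition. Size under these conditions: about 68,000 compounds, about 24 of them at 50% or above in at least one test.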
B: 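Assay on Mycobacterium tuberculosis, filed only as a heat shock assay from Cornell; the read-out is not stated. The concentration is filed as 10 mM, unlikely as a test dose, so the dose is not known. The record gives no direction; compounds that gave an IC50 in retests scored well above the rest, so higher reads as stronger inhibition. Size under these conditions: about 69,000 compounds, about 930 of them at 50% or above in at least one test.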

All values are in %. The record does not define 0% and 100%; most values in the screen are far below 50% and negative numbers occur (in some assays of this library far below -100). The compounds are a random part of those screened. A dash means the value is not listed here; it may have been measured.

SMILES	A	B
COc1ccc(CNC(C)Cn2cccn2)cc1OC (stereo unspecified)	11.11%	-13.02%
Cc1cnn(C2CCCN(C(=O)CCc3ccncc3)C2)c1 (stereo unspecified)	21.67%	-13.55%
O=C(O)C(F)(F)F.O=C(O)C(F)(F)F.c1nc(CNC2CCOCC2)c2n1CCCN(CC1CC1)C2	-	-30.35%
CO[C@H]1CCN(C2CCOCC2)C[C@@H]1Cc1ccccc1.O=C(O)C(F)(F)F	-	1.874%
O=C(NC[C@H]1OC[C@@H](NC(=O)C2CCCC2)[C@@H]1O)c1ccncc1	5.263%	-7.933%
COC(=O)CCC(=O)N(Cc1ccc2cc[nH]c2c1)C1CC1	14.73%	-1.511%
CC(=O)N1CCOCC(Cc2ccc3c(ccn3C)c2)C1 (stereo unspecified)	24.69%	-5.643%
Nc1cc(CCC2CN(Cc3ccc4cc[nH]c4c3)CCO2)ccn1 (stereo unspecified)	13.88%	-29.21%
CNC(=O)c1cccc(NC(=O)Cn2nc(-c3cccs3)oc2=O)c1	7.937%	-21.42%
COC1CC2(CCN(Cc3nccn3C)CC2)C1	8.904%	-
COc1ccc2nc(CNC(=O)C3CC4(CCNCC4)CN3C)[nH]c2c1 (stereo unspecified)	19.81%	-14.52%
O=C1[C@H]2CN(Cc3nccs3)C[C@H]2CN1c1ccsc1	9.764%	-
COCCN(C)C1COC2(CCN(Cc3cccc(F)c3)CC2)C1 (stereo unspecified)	-2.614%	-
CCS(=O)(=O)N1C[C@@H](c2nnc(C)o2)C[C@H]2OCC[C@H]21	10.14%	-
NC(=O)CCn1cc(CNCCCc2ccccc2O)c2ccccc21	8.675%	0.4566%
CC(C)C(NC(=O)Cc1ccccc1)C(=O)NCc1ccc(O)nc1 (stereo unspecified)	20.72%	17.01%
CN1Cc2ccccc2CC2(CCN(C(=O)[C@H]3CCCO3)CC2)C1=O	16.81%	5.784%
COc1ccc(-c2cc(C3CCNCC3)nc(C)n2)cc1.Cl	-	1.91%
CCN(CC)CCCNC(=O)C(C)n1cc(Br)cn1 (stereo unspecified)	-7.692%	6.554%
Cn1ccc(C(=O)N(CC(F)F)c2cccc(Cl)c2)cc1=O	13.59%	9.426%
O=C(c1scc2c1OCCO2)N1CCOC(Cc2cccc(F)c2)C1 (stereo unspecified)	-14.71%	-10.02%
CC(=O)N1[C@H](CN(C)C)C[C@@H]2CN(C(=O)Cc3cccs3)CC[C@@H]21	11.22%	-
CCc1nnc2n1CCN(C(=O)c1cc3c(F)cccc3[nH]1)C2	21.94%	-6.992%
COc1cccc(CNc2nc(N3CCOCC3)ns2)c1OC	1.882%	-11.89%
O=C(c1ccoc1)N1CCOCC2(CCN(C3CCOCC3)C2)C1 (stereo unspecified)	11.24%	-
O=C(CCc1ccsc1)N1CCC(Cc2ccc(CO)cc2)C1 (stereo unspecified)	14.16%	29.23%
Cc1cc(C)c(C#N)c(NCCn2cnnc2C(C)C)n1	13.33%	1.039%
CN(Cc1ccco1)C1CCC12CCN(C(=O)C1CCOCC1)CC2.O=C(O)C(F)(F)F (stereo unspecified)	-	-2.129%
Cc1ccccc1C(C)CC(=O)N1CC[C@H](O)C1 (stereo partly specified)	11.72%	3.897%
c1ccc(CN2CCCC2)c(CNc2cncc3nnnn23)c1	8.873%	1.842%
Cn1ccnc1CN1CCC2(CC1)CN(Cc1ccccc1)C(=O)CO2.O=C(O)C(F)(F)F	-	-4.134%
CC1CN(CC(=O)Nc2cccnc2)CCN1c1nccs1 (stereo unspecified)	3.492%	20.47%
Cc1cc(C)c(CNC(=O)NCc2ccc3c(c2)CCC3)c(=O)[nH]1	15.31%	-2.013%
Cc1noc(Cl)c1CC(=O)N1CCC(Nc2cccnn2)CC1	13.11%	5.033%
CCn1ccnc1CNC1CC(=O)N(CCc2cccc(Cl)c2)C1 (stereo unspecified)	10.43%	2.835%
[H][C@@]12C[C@H](C(=O)NCc3ccccc3)[C@@]([H])(CN(C(=O)NCC(C)C)C1)O2	-	-8.036%
Cc1ccc2nc(C)cc(C(=O)N[C@H]3COC[C@@H]3N3CCOCC3)c2c1	5.16%	-46.17%
COc1ncccc1CNC1CCc2c(ccc(=O)n2CC2CC2)C1.O=C(O)C(F)(F)F.O=C(O)C(F)(F)F (stereo unspecified)	-	18.05%
CCOc1ccc(NC(=O)CN2CCN(c3nccn3C)CC2)cc1	13.73%	43.35%
Cn1cc(CN2CCCC(CCc3ccc(F)c(F)c3)C2)cn1 (stereo unspecified)	6.72%	-31.81%
CSCC[C@H](NC(=O)Cn1ccc2c(Br)cccc21)C(=O)O	19.7%	10.94%

Repeated from the top, 5 entries:

SMILES	A	B
COc1ccc(CNC(C)Cn2cccn2)cc1OC (stereo unspecified)	11.11%	-13.02%
Cc1cnn(C2CCCN(C(=O)CCc3ccncc3)C2)c1 (stereo unspecified)	21.67%	-13.55%
O=C(O)C(F)(F)F.O=C(O)C(F)(F)F.c1nc(CNC2CCOCC2)c2n1CCCN(CC1CC1)C2	-	-30.35%
CO[C@H]1CCN(C2CCOCC2)C[C@@H]1Cc1ccccc1.O=C(O)C(F)(F)F	-	1.874%
O=C(NC[C@H]1OC[C@@H](NC(=O)C2CCCC2)[C@@H]1O)c1ccncc1	5.263%	-7.933%